According to article PMC11516061:
Results are given in words; binding and its absence hold for the method and conditions named. In cells and extracts the contact can be indirect. These calls come from enrichment with a bait or labelling near it, and not all partners need be listed. Sequences can lack the tags named with a protein.

Protein sequences, listed by entry. Tags and fused reporters are not part of them.
UniProt Q9UKV5: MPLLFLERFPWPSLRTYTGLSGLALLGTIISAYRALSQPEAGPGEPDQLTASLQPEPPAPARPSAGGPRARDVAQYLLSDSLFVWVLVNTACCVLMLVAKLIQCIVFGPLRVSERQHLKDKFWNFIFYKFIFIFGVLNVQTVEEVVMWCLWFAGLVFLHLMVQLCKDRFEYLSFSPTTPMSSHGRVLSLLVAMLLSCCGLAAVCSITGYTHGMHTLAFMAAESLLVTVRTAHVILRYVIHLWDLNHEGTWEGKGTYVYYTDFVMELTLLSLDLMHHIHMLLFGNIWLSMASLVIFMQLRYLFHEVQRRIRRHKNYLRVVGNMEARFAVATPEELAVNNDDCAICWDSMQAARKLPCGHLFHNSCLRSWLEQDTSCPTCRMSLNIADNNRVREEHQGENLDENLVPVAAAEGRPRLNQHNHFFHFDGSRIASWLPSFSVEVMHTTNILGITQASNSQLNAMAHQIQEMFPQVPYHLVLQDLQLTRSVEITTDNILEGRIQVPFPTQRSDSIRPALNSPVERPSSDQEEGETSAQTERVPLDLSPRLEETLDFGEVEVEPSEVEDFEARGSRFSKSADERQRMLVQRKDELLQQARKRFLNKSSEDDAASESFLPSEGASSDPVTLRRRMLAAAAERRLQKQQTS

Molecular target: T1, FLAG-tagged B7-H4 (human), stably expressed in MDA-MB-468 cells (human) (UniProt Q7Z7D3)
T1 sequence: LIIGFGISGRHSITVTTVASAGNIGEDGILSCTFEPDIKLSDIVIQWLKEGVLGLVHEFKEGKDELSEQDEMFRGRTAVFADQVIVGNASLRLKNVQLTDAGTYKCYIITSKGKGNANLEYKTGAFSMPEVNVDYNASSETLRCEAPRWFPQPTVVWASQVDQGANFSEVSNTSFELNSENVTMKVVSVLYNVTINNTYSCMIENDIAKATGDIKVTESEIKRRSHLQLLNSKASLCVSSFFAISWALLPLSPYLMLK
Assay: affinity purification with mass spectrometry; FLAG-B7-H4 immunoprecipitated with anti-FLAG M2 agarose from MDA-MB-468 stable cells lysed in NP40 buffer (1% NP-40, 10% glycerol, 25 mmol/L Tris-HCl pH 7.9), washed with TBST, eluted with 3x FLAG peptide, SDS-PAGE, mass spectrometry; empty vector as control

autocrine motility factor receptor (AMFR), endogenous in MDA-MB-468 cells (from UniProt Q9UKV5 1-643) (enzyme)
binding: binds
